Results: patent publication US20170204150A1
No constants are given. Whether binding was seen depends on the method and setting. Some entries that bind do so weakly or less than the wild type.

Sequences of proteins named here, by UniProt entry; tags and fusion partners are left off. Residues count along the entry.
UniProt P35968, residues 20-764: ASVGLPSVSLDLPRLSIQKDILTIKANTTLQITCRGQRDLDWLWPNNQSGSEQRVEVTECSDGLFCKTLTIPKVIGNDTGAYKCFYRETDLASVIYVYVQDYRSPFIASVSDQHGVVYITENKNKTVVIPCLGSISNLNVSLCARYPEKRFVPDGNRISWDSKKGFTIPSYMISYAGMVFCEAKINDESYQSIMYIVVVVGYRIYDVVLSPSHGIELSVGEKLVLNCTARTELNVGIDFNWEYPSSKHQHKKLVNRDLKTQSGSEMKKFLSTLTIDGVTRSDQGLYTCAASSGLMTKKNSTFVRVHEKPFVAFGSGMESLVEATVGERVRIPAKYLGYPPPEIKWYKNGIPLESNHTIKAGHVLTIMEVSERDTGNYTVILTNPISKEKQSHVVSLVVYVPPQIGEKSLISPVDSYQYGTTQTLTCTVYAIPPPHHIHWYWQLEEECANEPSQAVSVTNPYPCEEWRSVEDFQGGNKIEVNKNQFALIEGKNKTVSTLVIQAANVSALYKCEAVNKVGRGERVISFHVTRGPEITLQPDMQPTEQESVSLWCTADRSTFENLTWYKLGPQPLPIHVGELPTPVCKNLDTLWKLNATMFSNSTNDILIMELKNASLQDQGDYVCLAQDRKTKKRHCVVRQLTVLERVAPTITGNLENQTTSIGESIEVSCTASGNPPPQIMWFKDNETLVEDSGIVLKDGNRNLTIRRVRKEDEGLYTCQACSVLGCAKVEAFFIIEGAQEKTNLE
UniProt Q04609, residues 44-750: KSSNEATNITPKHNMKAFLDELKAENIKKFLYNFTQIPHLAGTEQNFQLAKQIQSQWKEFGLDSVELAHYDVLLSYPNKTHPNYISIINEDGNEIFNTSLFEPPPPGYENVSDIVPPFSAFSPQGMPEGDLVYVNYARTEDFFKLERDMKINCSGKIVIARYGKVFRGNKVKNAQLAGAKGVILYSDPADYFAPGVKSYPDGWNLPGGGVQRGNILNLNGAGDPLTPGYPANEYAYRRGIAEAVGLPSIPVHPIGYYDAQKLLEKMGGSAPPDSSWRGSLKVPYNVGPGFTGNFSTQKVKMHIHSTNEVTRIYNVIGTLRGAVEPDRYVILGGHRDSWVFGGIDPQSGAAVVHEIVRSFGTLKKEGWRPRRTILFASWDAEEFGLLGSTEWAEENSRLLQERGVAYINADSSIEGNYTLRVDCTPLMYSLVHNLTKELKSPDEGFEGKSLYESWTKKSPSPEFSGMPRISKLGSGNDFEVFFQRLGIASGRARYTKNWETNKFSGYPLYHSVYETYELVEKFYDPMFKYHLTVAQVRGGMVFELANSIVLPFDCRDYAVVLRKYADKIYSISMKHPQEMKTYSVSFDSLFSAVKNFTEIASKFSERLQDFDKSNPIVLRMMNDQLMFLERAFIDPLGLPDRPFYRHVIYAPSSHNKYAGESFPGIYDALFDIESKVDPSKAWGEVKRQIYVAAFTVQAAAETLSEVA

What was measured:
VEGFR2-Fc [1] = molecular target: VEGFR2-Fc (UniProt P35968); test: soluble protein (Octet)
VEGFR2-Fc [2] = molecular target: VEGFR2-Fc (UniProt P35968); test: yeast surface display titration
[3] = molecular target: prostate specific membrane antigen (PSMA) (UniProt Q04609); test: yeast surface display titration
VEGFR2-Fc [4] = molecular target: VEGFR2-Fc (UniProt P35968); test: yeast surface display, titration with soluble VEGFR2-Fc, % maximum VEGFR2-Fc bound
[5] = molecular target: prostate specific membrane antigen (PSMA) (UniProt Q04609); test: yeast surface display, titration with soluble PSMA, PSMA bound in arbitrary fluorescence
VEGFR2-Fc [6] = molecular target: VEGFR2-Fc (UniProt P35968); test: Octet, soluble proteins

binding (VEGFR2-Fc [1]) | binding (VEGFR2-Fc [2]) | binding [3] | binding (VEGFR2-Fc [4]) | binding [5] | binding (VEGFR2-Fc [6]) | Binder
binds | binds | binds | binds | binds |  | VEGFR2/PSMA protein (designed binder) EVVKAMDVYQRSYCHPIETLVDIFQEYPDEIEYIFKPSCVPLMRCGGCCNDAGLECVPTEESNITMQIMRIKPHQGQHIGEMSFLQHNKCECRPKKDGGGGSGGGGSGGGGSGGGGSEVVKFMDVYQRSYCHPIETLVDIFQEYPSIASWNPWMAFKPSCVPLMRCGGCCNDEGLECVPTEESNITMQIMRNRLFRYLPVRHIGEMSFLQHNKCECRPKKD
binds | binds |  | binds |  | binds | scVEGFmut (ligand) APMAEGGGQNHHEVVKAMDVYQRSYCHPIETLVDIFQEYPDEIEYIFKPSCVPLMRCGGCCNDAGLECVPTEESNITMQIMRIKPHQGQHIGEMSFLQHNKCECRPKKDRARQEKCDKPRRGGGGSGGGGSGGGGSGGGGSAPMAEGGGQNHHEVVKFMDVYQRSYCHPIETLVDIFQEYPDEIEYAFKPSCVPLMRCGGCCNDEGLECVPTEESNITMQIMRAKPHQGQHIGEMSFLQHNKCECRPKKDRARQEKCDKPRR
